Data reported in patent US20240315991A1, “USES OF HNF4 ALPHA AGONISTS” (Sanford Burnham Prebys Medical Discovery Institute, priority 2023, published 2024).
“Also recorded” adds a separate entry of the source.

Test system: C57BL/6 mice fed high fat diet (HFD)
Assay: HFD induced weight gain and hepatic steatosis, NCT in HFD chow for 10 weeks
Type: in vivo
Settings: HFD+NCT vs HFD
Protocol: NCT oral administration. Four-week-old male C57BL/6J (JAX cat #000664) mice were purchased from Jackson laboratory and were maintained in a 12 h light/dark cycle throughout the experiment. Prior to the experiments, mice were acclimated for 2 weeks. Six-week-old mice with similar body weights were randomized to a normal diet (NC), a high fat diet (HFD) (Research Diets, cat #D12492 60 kcal % fat) or HFD containing 4000 ppm NCT (HFD+NCT) (Research Diets, 60 kcal % fat+4000 ppm NCT), which was calculated to provide approximately 400 mg/kg/d NCT. HFD chow containing NCT was made with gray dye to distinguish it from regular HFD chow that had green dye. […] Body weight gain and food intake were measured every week for 10 weeks. […]
Sample collection. […] Mice were dissected aseptically and liver, epididymal fat, and body weights were measured and pictures taken. […]
Oil Red O staining (in vivo) and analysis. […] The liver area stained with oil red O was measured using image J software as described, with some modifications as follow, Oil red O-stained liver images were opened in Image J software. […] Fold change was calculated by normalizing the values to images from mice fed normal chow.
Triglyceride analysis. The TG level in mouse liver, serum, and stool was measured according to manufacturer's instructions using the Triglyceride calorimetric Assay Kit (Cat #10010303, Cayman Chemicals, USA). […]

SMILES: O=C(/C=C/c1ccc(O)c(O)c1)NCCc1ccc(O)cc1 [NCT, N-trans caffeoyltyramine]
- chow consumption per cage (measured every week for 10 weeks): non-significant; also recorded: no difference
- stool triglyceride (TG) level (normalized to stool dry weight): non-significant; also recorded: equal
